Where two headings read alike, the source gives them in different places.
Key:
P. falciparum Dd2 [1] = test: Metabolic (parasite LDH) assay, asexual ring stage parasites, 48 h; format: cell-based, Plasmodium falciparum; conditions: resistance index
Method: (§1) Working solutions of the derivatives were prepared from a 10 mM stock solution in 100% DMSO in supplemented RPMI 1640 media containing Albumax II with a final DMSO concentration of <0.1%, previously determined as being non-toxic to intraerythrocytic asexual parasites and gametocytes. Dose responses were assayed using a two-fold serial drug dilution on in vitro >95% ring stage intraerythrocytic P. falciparum parasites at 37°C under 90% N2, 5% CO2, and 5% O2 atmospheric conditions, detecting both parasite lactate dehydrogenase (pLDH) activity as a metabolic marker following a 48 h drug exposure (1.5–2% parasitemia and 2% hematocrit; Makler et al., [1993]) and SYBR Green I fluorescence as proliferative marker following a 96 h drug exposure (1% parasitemia and 1% hematocrit). […] Data analysis was performed using GraphPad Prism 7.

P. falciparum K1 [2] = test: Proliferative (SYBR Green I) assay, asexual parasites, 96 h; format: cell-based, Plasmodium falciparum; conditions: resistance index
Method: (§2) P. falciparum parasites (NF54, K1, and W2) were cultured in vitro in human erythrocytes (A^+ or O^+) under 90% N2, 5% CO2, and 5% O2 atmospheric conditions with supplemented RPMI 1640 media (Sigma Aldrich) containing Albumax II, as previously described (Verlinden et al., [2011]). This study was carried out according the guidelines set out by the Faculty of Health Sciences Ethical Committee, Ethical Clearance no. EC-120821/077. The protocol was approved by the Faculty of Health sciences ethical committee at the University of Pretoria. All subjects gave written informed consent in accordance with the Declaration of Helsinki. Parasite proliferation was monitored microscopically using Giemsa stained smears. Synchronized ring stage parasites (>95%) were obtained using a 5% D-sorbitol (Sigma Aldrich) treatment. […] Gametocyte cultures were kept stationary under 90% N2, 5% CO2, and 5% O2 atmospheric conditions at 37°C and treated with 50 mM N-acetyl-glucosamine (NAG) to eliminate residual invasion of asexual parasites.
as §1

P. falciparum W2 [3] = test: as above; format: cell-based, Plasmodium falciparum; conditions: resistance index
Method: as §2, §1

[4] = system: Chinese hamster ovarian (CHO) cells; test: Cytotoxicity, MTT assay; format: cell-based; conditions: selectivity index
Method: (§3) Cytotoxicity (EC50) was determined against Chinese hamster ovarian (CHO) using a 3-(4,5-dimethylthiazol-2-yl)-2,5-diphenyltetrazolium bromide (MTT) assay and hepatocellular carcinoma cells (HepG2) using the Cytoselect LDH cytotoxicity assay kit (Cell Biolabs).

HepG2 cells [5] = test: Cytotoxicity, Cytoselect LDH cytotoxicity assay kit; format: cell-based, human; conditions: selectivity index
Method: as §3

[6] = system: P. falciparum NF54 late stage gametocytes (>90% stage IV and V); test: Gametocytocidal luciferase reporter assay, late stage, 72 h; format: cell-based, Plasmodium falciparum
Method: as §2
Gametocytocidal activity was determined using the luciferase reporter line (Reader et al., [2015]) to derive dose responses with two-fold serial drug dilutions for 48 h against early stage gametocytes (day 5 post-induction population, >90% stage I–III) and 10-fold serial drug dilutions for 72 h against late stage gametocytes (day 10 post-induction population, >90% late stage IV–V) (2% gametocytemia, 2% hematocrit), at 37°C under 90% N2, 5% CO2, and 5% O2 atmospheric conditions.

HepG2 cells [7] = test: HepG2 cytotoxicity bioluminescence assay (CellTiterGlo, ATP); format: cell-based, human; conditions: selectivity index
Method: Briefly, HepG2-CD81 cells were seeded into 1,536 well plates containing 50 nL of test and control compounds diluted into DMSO. […] Next, 2 μL of luciferin reagent (Promega BrightGlo) was added to each well and luciferase activity was detected using a Perkin Elmer Envision plate reader. […] In parallel, plates were processed without sporozoites for HepG2 toxicity measurements.
In continuation of the transmission blocking theme, it is important to establish activities against liver stage parasites. […] This assay uses ultra-high-throughput screening methods optimized for a 1536-well format and a HepG2 human hepatoma cell line. […] To establish selectivity of the compounds for the parasite in the liver stage of infection, cytotoxicity was determined by measuring bioluminescence from the reaction between free ATP of compound-treated, uninfected hepatocytes and a luciferase reporter system.

[8] = system: P. falciparum ARC08-22 (4G); test: T0 [3H]-hypoxanthine drug susceptibility assay, artemisinin-resistant clone (C580Y); format: cell-based, Plasmodium falciparum
[9] = system: P. falciparum PL08-009 (5C); test: as above; format: cell-based, Plasmodium falciparum; conditions: for fold decrease in susceptibility of PL08-009 (5C): relative to W2
P. falciparum Dd2 [10] = system: P. falciparum Dd2; parameters: method as in Coertzen et al. (2018); conditions: resistance index; ref Coertzen et al. (2018); cited from earlier work
P. falciparum K1 [11] = system: P. falciparum K1; parameters: method as in Coertzen et al. (2018); conditions: resistance index; ref Coertzen et al. (2018); cited from earlier work
P. falciparum W2 [12] = system: P. falciparum W2; parameters: method as in Coertzen et al. (2018); conditions: resistance index; ref Coertzen et al. (2018); cited from earlier work
[13] = system: P. falciparum NF54 late stage gametocytes (>90% stage IV and V); parameters: method as in Coertzen et al. (2018); conditions: ref Coertzen et al. (2018); cited from earlier work
[14] = system: Chinese hamster ovarian (CHO) cells; conditions: selectivity index; ref Coertzen et al. (2018); cited from earlier work

SMILES	RI (IC50 Dd2/IC50 NF54), metabolic (P. falciparum Dd2 [1])	RI (IC50 K1/IC50 NF54), proliferative (P. falciparum K1 [2])	RI (column beside W2; footnote f IC50 Dd2/IC50 NF54), proliferative (P. falciparum W2 [3])	SI (EC50 CHO/IC50 NF54 proliferative assay) [4]	SI (EC50 HepG2/IC50 NF54) (HepG2 cells [5])	Fold change preference ratio: EG to LG [6]	SI (EC50 HepG2/IC50 P. berghei sporozoites) (HepG2 cells [7])	RI (IC50 for ARC08-22(4G)/IC50 for W2) [8]	RI (IC50 for PL08-09 (5C)/IC50 for W2) [9]	fold decrease in susceptibility of PL08-009 (5C) [9] [fold]	RI (IC50 Dd2/IC50 NF54), metabolic (P. falciparum Dd2 [10])	RI (IC50 K1/IC50 NF54), proliferative (P. falciparum K1 [11])	RI (column beside W2; footnote f IC50 Dd2/IC50 NF54), proliferative (P. falciparum W2 [12])	Fold change preference ratio: EG to LG [13]	Fold change preference ratio: LG to EG [13]	SI (EC50 CHO/IC50 NF54 proliferative assay) [14]
C[C@H]1[C@H](N2CCN(C(=O)c3ccc(F)cc3)CC2)O[C@@H]2O[C@@]3(C)CC[C@H]4[C@H](C)CC[C@@H]1[C@@]24OO3 [Compound 28]	1.4	0.75	1.0	67,821	67.8	0.03	73.0	1.6	42.2	> 20	–	–	–	–	–	–
C[C@H]1[C@H](N2CCN(C(=O)c3ccc(C(F)(F)F)cc3)CC2)O[C@@H]2O[C@@]3(C)CC[C@H]4[C@H](C)CC[C@@H]1[C@@]24OO3 [Compound 27]	26.9	1.0	0.9	44,235	39.85	0.06	41.8	1.9	45.2	> 20	–	–	–	–	–	–
C[C@H]1[C@H](N2CCS(=O)(=O)CC2)O[C@@H]2O[C@@]3(C)CC[C@H]4[C@H](C)CC[C@@H]1[C@@]24OO3 [Artemisone 8, artemisone]	–	–	–	–	–	–	>1767	1.0	0.2	–	0.9	0.85	1.36	21.9	0.05	>83,000
